{"source": "patent US20200390754A1", "about": "“METHODS OF ADMINISTERING TOLPERISONE” (Neurana Pharmaceuticals, Inc., priority 2017, published 2020)", "test": "Correlation of plasma drug levels with driving performance, cognitive and self-report measures", "format": "in vivo, human", "conditions": "correlational analyses", "data": [{"smiles": "Cc1ccc(C(=O)C(C)CN2CCCCC2)cc1", "note": "(centres unmarked) [Tolperisone, tolperisone]", "values": [{"measurement": "relationship between performance on the Symbol Digit Coding Test and plasma concentration", "value": "higher concentrations were associated with better performance"}, {"measurement": "relationship between plasma concentrations and measures of driving performance, cognitive functioning, or self-report measures", "value": "no relationship"}]}]}
